Among the data in PubChem BioAssay AID328 (DTP/NCI, 2004) are T/C and survivor count values, retold here.

The list does not hold the whole screen: it is rich in T/C values a quarter to a half above the control, in often repeated tests (any T/C) and in doses without a T/C. Other doses and runs of a compound stand elsewhere. T/C gives the treated animals as a percentage of the vehicle group. Some entries give survivors of the animals treated and no T/C: the source files T/C as zero there, which appears to mark a toxic dose or a test without result, not a measured value. Some survivor counts are full or nearly so, which does not show that the dose was tolerated: the source hardly ever lists a survival T/C far under the control, and the zero likely stands for such cases as well. Counts of survivors are from the toxicity check (mostly the fifth day) where no day follows; animals may have died later. Schedule codes are those of the source, taken here to give the interval after Q, in days (D) or hours (H), and the number of doses after X. Some doses were run more than once; the values are given in rising order. For survival time, this PubChem deposit counts one and a half times the control or more as active, and values a quarter to a half above the control carry no call in these data; other NCI protocols may use other cut-offs. Some T/C values are followed by the survivors on the day toxicity was checked, most often the fifth; without a count, all were alive then. Brackets with × say how often a value occurs here.

In the assay the test system is BDF1 mice, P388 leukemia ip, median survival T/C. Nature of the assay: NCI In Vivo Anticancer Drug Screen. Data for tumor model P388 Leukemia (intraperitoneal) in B6D2F1 (BDF1) mice. The conditions noted are these: T/C endpoint: median survival time, higher T/C = longer survival. A digest of the protocol: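 In tumour-bearing mice, survival after compound treatment is set against the vehicle group and given as a quotient.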

The mark [1] stands for this setting: dose: 400.0 mg/kg/injection, schedule: Q01DX009 (ip), vehicle: saline with Tween-80.
The mark [2] stands for this setting: dose: 12.5 mg/kg/injection, schedule: Q01DX009 (ip), vehicle: saline.
The mark [3] stands for this setting: dose: 25.0 mg/kg/injection, schedule: Q01DX009 (ip), vehicle: saline.
Setting [4] is: dose: 50.0 mg/kg/injection, schedule: Q01DX009 (ip), vehicle: saline.

On to `CC(C)NCC(=O)c1ccc(O)c(O)c1`, for which the T/C reads like this: (dose: 200.0 mg/kg/injection, schedule: Q01DX009 (ip), vehicle: saline with Tween-80) 127 % of control; (dose: 264.0 mg/kg/injection, schedule: Q01DX009 (ip), vehicle: saline with Tween-80) 138 % of control [4 of 6 alive]; under setting [1], 140 % of control. Also, the survivor count by setting is: under setting [1], 2 of 6; (dose: 600.0 mg/kg/injection, schedule: Q01DX009 (ip), vehicle: saline with Tween-80) 0 of 6.
As for `CSCS(=O)C[C@H](CO)NC(=O)/C=C/c1c(C)[nH]c(=O)[nH]c1=O` (some centres undefined), the T/C is 144 % of control (dose: 1.44 mg/kg/injection, schedule: Q04DX003 (ip), vehicle: saline); 125 % of control (dose: 1.56 mg/kg/injection, schedule: Q04DX002 (ip), vehicle: Klucel (hydroxypropylcellulose) (HPC)); 132 % of control (dose: 2.0 mg/kg/injection, schedule: Q04DX003 (ip), vehicle: saline). Besides, the survivor count reads like this: (dose: 4.0 mg/kg/injection, schedule: Q04DX003 (ip), vehicle: saline) 7 of 8 and 8 of 8; (dose: 8.0 mg/kg/injection, schedule: Q04DX003 (ip), vehicle: saline) 1 of 8; (dose: 16.0 mg/kg/injection, schedule: Q04DX003 (ip), vehicle: saline) 0 of 8; (dose: 800.0 micrograms/kg/injection, schedule: Q01DX009 (ip), vehicle: saline) 6 of 8.
For `COc1ccc([I+]c2ccccc2)cc1`, the survivor count is given as 6 of 6 under setting [2]; 0 of 6 under setting [3]; 1 of 6 (dose: 50.0 mg/kg/injection, schedule: Q04DX003 (ip), vehicle: saline sonified).
For `CCN(CC)CCCOC(=O)/C=C/c1c(C)[nH]c(=O)[nH]c1=O`, the survivor count runs as follows: (dose: 6.25 mg/kg/injection, schedule: Q01DX009 (ip), vehicle: saline) 6 of 6; under setting [2], 6 of 6; under setting [3], 6 of 6; under setting [4], 6 of 6; (dose: 100.0 mg/kg/injection, schedule: Q01DX009 (ip), vehicle: saline) 5 of 6.
As for `CN(CCO)C1=C(N2CC2)C(=O)C(N(C)CCO)=C(N2CC2)C1=O`, the T/C (dose: 100.0 micrograms/kg/injection, schedule: Q01DX009 (ip), vehicle: saline) is 131 % of control.
Take `CCN(CC)Cc1cc(Nc2c3ccc([N+](=O)[O-])cc3nc3ccc(OC)cc23)ccc1O`: the survivor count under setting [2] is recorded as 6 of 6. For the same compound, where the note is “dose: 50.0 mg/kg/injection, schedule: Q04DX003 (ip), vehicle: saline”, the T/C is 128 % of control.
As to `CC(=O)OCc1c(O)c2c(c(O)c1COC(C)=O)C(=O)C=CC2=O`, the survivor count under setting [4] was 5 of 6.
On to `CCCC(=O)OCc1ccc(Cl)cc1Cl`, for which the T/C (dose: 200.0 mg/kg/injection, schedule: Q04DX003 (ip), vehicle: saline with Tween-80) is 127 % of control.
In the case of `Nc1nc(N)c2cc(CNc3ccc(C(=O)NC(C(=O)O)C(=O)O)cc3)ccc2n1`, the T/C is, setting by setting: (dose: 0.06 mg/kg/injection, schedule: Q01DX009 (ip), vehicle: saline) 131 % of control; (dose: 0.1 mg/kg/injection, schedule: Q01DX009 (ip), vehicle: saline) 145 % of control.
With `C=C1C(C)C2C(Cc3ccccc3)NC(=O)C23C(OC(C)=O)C=CC(C)(O)C(=O)C(C)C/C=C/C3C1O` (centres undefined), the T/C (dose: 2.5 mg/kg/injection, schedule: Q01DX009 (ip), vehicle: saline with Tween-80) was 130 % of control. Further, the survivor count reads like this: (dose: 3.7 mg/kg/injection, schedule: Q01DX009 (ip), vehicle: saline) 6 of 6; (dose: 5.0 mg/kg/injection, schedule: Q01DX009 (ip), vehicle: saline with Tween-80) 1 of 6.
On to `O=c1[nH]c(=O)n(C2CC(O)C(CO)O2)cc1F` (centres undefined), for which the T/C (dose: 5.0 mg/kg/injection, schedule: Q01DX010 (ip), vehicle: saline) was 127 % of control; the T/C (dose: 10.0 mg/kg/injection, schedule: Q01DX010 (ip), vehicle: saline, evaluated on day 30) is 122, 133, 145 % of control (2×); the T/C (dose: 10.0 mg/kg/injection, schedule: Q01DX010 (ip), vehicle: saline, run until all animals had died) was 154 % of control; the T/C (dose: 20.0 mg/kg/injection, schedule: Q01DX010 (ip), vehicle: saline, evaluated on day 30) is recorded as 141, 145, 150, 154 % of control; the T/C (dose: 20.0 mg/kg/injection, schedule: Q01DX010 (ip), vehicle: saline, run until all animals had died) was 177 % of control; the T/C (dose: 40.0 mg/kg/injection, schedule: Q01DX010 (ip), vehicle: saline, evaluated on day 27) was 216 % of control. The T/C (dose: 40.0 mg/kg/injection, schedule: Q01DX010 (ip), vehicle: saline, evaluated on day 30) was 125, 126, 128 (2×), 138, 145, 145 [5 of 6 alive], 150 [5 of 6 alive], 154, 160, 168, 168 [5 of 6 alive], 172, 175, 177, 186 % of control; the T/C (dose: 40.0 mg/kg/injection, schedule: Q01DX010 (ip), vehicle: saline, evaluated on day 33) is 190 and 209 % of control; the T/C (dose: 40.0 mg/kg/injection, schedule: Q01DX010 (ip), vehicle: saline, run until all animals had died) was 186 % of control; the T/C (dose: 40.0 mg/kg/injection, schedule: Q01DX010 (ip), vehicle: water) was 191, 200 (2×), 222 % of control; the T/C (dose: 60.0 mg/kg/injection, schedule: Q01DX010 (ip), vehicle: saline, evaluated on day 27) was 205 % of control; the T/C (dose: 60.0 mg/kg/injection, schedule: Q01DX010 (ip), vehicle: saline, evaluated on day 30) was 132, 142, 146 (3×), 162, 168, 172, 175, 179, 180, 181, 195 % of control (2×). The T/C runs as follows: (dose: 60.0 mg/kg/injection, schedule: Q01DX010 (ip), vehicle: saline, evaluated on day 33) 109 and 136 % of control; (dose: 60.0 mg/kg/injection, schedule: Q01DX010 (ip), vehicle: water) 158, 205, 210, 250 % of control; (dose: 75.0 mg/kg/injection, schedule: Q03HX024 (ip), vehicle: saline) 132 % of control; (dose: 80.0 mg/kg/injection, schedule: Q01DX010 (ip), vehicle: saline, evaluated on day 27) 188 % of control; (dose: 80.0 mg/kg/injection, schedule: Q01DX010 (ip), vehicle: saline, evaluated on day 30) 118, 139, 150, 150 [5 of 6 alive], 153, 157, 162, 166, 181, 181 [5 of 6 alive], 186, 190 (2×), 191 % of control; (dose: 80.0 mg/kg/injection, schedule: Q01DX010 (ip), vehicle: saline, evaluated on day 33) 104 and 118 % of control. Further, the T/C (dose: 80.0 mg/kg/injection, schedule: Q01DX010 (ip), vehicle: saline, run until all animals had died) was 259 % of control; the T/C (dose: 80.0 mg/kg/injection, schedule: Q01DX010 (ip), vehicle: water) is 105, 110, 166, 283 % of control; the T/C (dose: 100.0 mg/kg/injection, schedule: Q01DX010 (ip), vehicle: saline, evaluated on day 27) is 105 % of control; the T/C (dose: 100.0 mg/kg/injection, schedule: Q01DX010 (ip), vehicle: saline, evaluated on day 30) is 92, 100, 108, 109, 109 [4 of 6 alive], 118, 121, 141, 153, 165, 190 [5 of 6 alive], 205, 231 % of control; the T/C (dose: 100.0 mg/kg/injection, schedule: Q01DX010 (ip), vehicle: saline, evaluated on day 33) was 100 and 104 % of control; the T/C (dose: 100.0 mg/kg/injection, schedule: Q01DX010 (ip), vehicle: water) is 105, 191 [5 of 6 alive], 230, 250 % of control. For the same compound, the T/C reads like this: (dose: 103.0 mg/kg/injection, schedule: Q04DX004 (ip), vehicle: saline) 143 % of control; (dose: 110.0 mg/kg/injection, schedule: Q01DX009 (ip), vehicle: saline) 191, 192, 193, 230 % of control; (dose: 305.0 mg/kg/injection, schedule: Q01DX001 (ip), vehicle: saline) 142 % of control; (dose: 455.0 mg/kg/injection, schedule: Q01DX001 (ip), vehicle: saline) 148 % of control. For the same compound, where the note is “dose: 100.0 mg/kg/injection, schedule: Q01DX010 (ip), vehicle: saline”, the survivor count is recorded as 6 of 6.
